These are yes or no findings as the source states them, for the method shown. Binding seen in cells or lysates may run through a third protein. Some entries that bind do so weakly or less than the wild type. For part of these data: Tags and fused reporters may be left off the sequences shown.

Protein sequences, listed by entry. Tags and fused reporters are not part of them.
UniProt P50750: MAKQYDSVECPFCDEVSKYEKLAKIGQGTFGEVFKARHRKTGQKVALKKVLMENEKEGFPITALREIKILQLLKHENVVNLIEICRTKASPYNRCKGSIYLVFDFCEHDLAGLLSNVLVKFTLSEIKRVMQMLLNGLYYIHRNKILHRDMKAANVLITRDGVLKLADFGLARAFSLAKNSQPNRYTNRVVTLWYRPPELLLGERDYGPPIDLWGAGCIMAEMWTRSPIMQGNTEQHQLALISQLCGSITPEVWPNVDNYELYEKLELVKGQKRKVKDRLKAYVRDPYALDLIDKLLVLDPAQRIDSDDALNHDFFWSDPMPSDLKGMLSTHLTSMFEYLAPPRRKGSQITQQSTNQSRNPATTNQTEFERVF
UniProt P04608: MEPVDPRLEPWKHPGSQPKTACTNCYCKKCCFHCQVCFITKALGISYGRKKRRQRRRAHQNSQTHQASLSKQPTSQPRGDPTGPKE
UniProt O94992: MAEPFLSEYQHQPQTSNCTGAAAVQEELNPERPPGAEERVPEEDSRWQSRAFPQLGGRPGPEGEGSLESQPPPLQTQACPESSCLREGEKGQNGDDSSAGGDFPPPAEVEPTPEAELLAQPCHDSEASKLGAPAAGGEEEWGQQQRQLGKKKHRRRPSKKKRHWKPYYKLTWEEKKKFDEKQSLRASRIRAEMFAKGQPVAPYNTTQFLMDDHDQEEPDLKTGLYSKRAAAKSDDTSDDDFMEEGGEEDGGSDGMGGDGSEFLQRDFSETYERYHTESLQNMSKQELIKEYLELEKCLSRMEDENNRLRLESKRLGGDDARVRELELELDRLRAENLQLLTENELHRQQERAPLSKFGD
UniProt O00472: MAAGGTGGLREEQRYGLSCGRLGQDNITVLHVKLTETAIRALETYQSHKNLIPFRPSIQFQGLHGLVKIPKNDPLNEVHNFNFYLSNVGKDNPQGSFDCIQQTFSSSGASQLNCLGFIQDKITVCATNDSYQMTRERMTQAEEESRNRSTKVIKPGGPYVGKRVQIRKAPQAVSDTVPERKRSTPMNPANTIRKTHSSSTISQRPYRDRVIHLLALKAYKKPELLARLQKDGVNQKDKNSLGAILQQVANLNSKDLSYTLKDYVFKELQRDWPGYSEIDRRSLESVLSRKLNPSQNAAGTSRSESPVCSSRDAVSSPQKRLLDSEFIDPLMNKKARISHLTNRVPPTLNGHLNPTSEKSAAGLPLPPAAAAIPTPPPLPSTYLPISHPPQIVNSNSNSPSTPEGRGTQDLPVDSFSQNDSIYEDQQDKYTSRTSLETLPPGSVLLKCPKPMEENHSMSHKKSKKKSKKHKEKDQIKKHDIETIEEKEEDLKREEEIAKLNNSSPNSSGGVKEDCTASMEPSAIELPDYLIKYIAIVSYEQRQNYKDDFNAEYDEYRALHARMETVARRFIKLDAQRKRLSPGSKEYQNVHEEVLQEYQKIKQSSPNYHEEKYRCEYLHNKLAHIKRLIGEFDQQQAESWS

The target of assay [1] is Flag-tagged CDK9, transfected in HeLa cells (human) (UniProt P50750). Description: co-IP.
The target in assay [2] is T1, FLAG-tagged AFF1 with the C-terminal homology domain deleted (UniProt P51825).
T1 sequence: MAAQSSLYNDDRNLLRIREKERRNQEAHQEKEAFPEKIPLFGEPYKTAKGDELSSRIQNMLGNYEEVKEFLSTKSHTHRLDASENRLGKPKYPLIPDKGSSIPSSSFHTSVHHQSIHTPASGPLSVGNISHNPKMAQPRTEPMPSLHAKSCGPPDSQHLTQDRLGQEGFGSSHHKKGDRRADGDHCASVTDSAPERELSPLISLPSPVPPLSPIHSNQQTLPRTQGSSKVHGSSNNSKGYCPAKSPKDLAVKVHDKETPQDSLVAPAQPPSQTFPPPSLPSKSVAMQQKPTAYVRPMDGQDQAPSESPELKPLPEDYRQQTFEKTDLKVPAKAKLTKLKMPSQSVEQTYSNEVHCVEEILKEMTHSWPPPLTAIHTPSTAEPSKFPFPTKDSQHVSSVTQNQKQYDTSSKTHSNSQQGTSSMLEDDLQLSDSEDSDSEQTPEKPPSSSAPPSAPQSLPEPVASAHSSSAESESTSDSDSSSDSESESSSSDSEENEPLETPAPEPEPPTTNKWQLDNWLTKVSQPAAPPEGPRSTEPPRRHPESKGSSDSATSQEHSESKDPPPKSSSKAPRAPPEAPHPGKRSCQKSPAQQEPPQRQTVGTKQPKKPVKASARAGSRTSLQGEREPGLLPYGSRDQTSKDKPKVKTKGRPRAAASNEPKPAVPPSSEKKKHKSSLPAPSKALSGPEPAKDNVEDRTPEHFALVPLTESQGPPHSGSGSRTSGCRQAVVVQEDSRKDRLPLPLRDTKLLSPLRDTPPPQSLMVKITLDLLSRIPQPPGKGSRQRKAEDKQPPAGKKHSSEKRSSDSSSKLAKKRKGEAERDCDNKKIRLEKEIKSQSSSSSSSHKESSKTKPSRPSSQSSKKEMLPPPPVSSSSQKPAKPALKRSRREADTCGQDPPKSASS
Description: co-IP; anti-Flag immunoprecipitation of Flag-tagged AFF1 or AFF4 (WT, truncations, point mutants) from nuclear extracts of transfected HeLa cells; western blotting for endogenous proteins (Figures 1C,D, 3B,D, 4A). (In general: Immunoblotting shows a protein as a band on a membrane.)

Assay [3] has as its target T2, FLAG-tagged AFF1 V67M (UniProt P51825).
T2 sequence: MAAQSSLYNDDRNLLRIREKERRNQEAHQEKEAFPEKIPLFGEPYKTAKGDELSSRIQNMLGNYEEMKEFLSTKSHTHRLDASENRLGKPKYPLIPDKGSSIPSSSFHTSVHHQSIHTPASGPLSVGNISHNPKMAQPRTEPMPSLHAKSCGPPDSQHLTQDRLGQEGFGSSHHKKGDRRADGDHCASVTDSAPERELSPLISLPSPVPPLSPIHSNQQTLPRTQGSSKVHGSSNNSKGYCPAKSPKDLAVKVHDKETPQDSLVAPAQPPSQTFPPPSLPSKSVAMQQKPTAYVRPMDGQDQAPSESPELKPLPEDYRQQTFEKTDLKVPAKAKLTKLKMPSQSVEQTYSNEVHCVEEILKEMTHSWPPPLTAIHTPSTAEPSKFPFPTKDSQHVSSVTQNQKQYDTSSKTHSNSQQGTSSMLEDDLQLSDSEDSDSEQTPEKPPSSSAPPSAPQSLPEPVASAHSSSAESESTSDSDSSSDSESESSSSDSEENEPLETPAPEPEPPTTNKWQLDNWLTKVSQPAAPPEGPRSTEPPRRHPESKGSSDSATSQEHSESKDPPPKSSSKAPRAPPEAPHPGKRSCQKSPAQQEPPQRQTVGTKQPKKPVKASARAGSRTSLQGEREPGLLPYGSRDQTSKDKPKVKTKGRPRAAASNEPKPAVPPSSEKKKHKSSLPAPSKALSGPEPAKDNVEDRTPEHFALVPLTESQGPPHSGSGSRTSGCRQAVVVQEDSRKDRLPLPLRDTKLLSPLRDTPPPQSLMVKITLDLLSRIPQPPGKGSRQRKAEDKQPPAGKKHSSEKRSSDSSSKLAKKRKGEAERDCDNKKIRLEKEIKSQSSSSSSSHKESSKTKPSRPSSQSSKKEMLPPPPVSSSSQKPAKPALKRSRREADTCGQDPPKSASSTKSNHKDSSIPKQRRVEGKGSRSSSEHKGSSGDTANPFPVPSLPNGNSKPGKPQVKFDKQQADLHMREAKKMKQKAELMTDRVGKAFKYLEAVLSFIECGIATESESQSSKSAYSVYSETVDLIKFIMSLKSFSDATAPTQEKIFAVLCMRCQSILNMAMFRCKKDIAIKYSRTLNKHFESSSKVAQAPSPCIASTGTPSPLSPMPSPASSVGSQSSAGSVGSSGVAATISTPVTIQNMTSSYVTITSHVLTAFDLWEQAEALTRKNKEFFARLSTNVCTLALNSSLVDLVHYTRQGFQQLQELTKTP
The description is as above.

Assay [4] addresses T3, FLAG-tagged AFF1, full length (aa 1-1210) (UniProt P51825).
T3 sequence: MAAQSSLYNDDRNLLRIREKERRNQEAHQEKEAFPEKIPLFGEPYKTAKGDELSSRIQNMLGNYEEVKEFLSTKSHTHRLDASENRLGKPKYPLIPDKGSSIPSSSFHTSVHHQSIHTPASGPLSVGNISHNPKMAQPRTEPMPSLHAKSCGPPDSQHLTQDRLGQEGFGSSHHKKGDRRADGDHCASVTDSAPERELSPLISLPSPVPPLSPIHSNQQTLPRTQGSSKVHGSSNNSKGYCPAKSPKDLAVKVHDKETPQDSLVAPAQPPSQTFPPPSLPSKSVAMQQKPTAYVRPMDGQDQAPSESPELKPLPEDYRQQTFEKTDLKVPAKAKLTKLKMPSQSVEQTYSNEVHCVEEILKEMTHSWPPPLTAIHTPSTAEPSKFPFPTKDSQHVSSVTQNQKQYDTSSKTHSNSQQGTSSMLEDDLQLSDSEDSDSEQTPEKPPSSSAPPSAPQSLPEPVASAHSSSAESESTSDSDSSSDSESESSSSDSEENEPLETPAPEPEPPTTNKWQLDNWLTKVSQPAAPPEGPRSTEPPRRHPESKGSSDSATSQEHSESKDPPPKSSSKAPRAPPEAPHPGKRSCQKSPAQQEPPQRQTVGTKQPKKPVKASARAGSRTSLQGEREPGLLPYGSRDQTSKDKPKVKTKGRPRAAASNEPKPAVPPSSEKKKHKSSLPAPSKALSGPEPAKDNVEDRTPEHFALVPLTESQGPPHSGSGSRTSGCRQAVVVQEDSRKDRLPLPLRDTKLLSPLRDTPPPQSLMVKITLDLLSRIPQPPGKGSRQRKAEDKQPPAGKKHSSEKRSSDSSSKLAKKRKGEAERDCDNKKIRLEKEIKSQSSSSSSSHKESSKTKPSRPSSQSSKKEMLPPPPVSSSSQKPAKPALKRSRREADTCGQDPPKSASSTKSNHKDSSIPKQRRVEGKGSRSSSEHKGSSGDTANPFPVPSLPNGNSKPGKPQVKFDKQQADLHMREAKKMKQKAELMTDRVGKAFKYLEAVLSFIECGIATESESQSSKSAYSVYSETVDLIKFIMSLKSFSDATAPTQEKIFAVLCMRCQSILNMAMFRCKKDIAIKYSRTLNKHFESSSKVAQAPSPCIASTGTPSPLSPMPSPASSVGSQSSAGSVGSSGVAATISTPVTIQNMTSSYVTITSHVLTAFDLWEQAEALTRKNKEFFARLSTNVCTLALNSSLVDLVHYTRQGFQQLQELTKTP
The description is as above.

Consider HIV-1 Tat (from UniProt P04608 1-86), for which the binding entry in assay [1] is listed as “binds”.
Consider “CDK9, endogenous (from UniProt P50750 1-372)”, for which the binding result in assay [2], in assay [3] and in assay [4] was “binds” throughout.
“HEXIM1, endogenous (from UniProt O94992 1-359)”: in assay [4], the binding result was “binds”.
Consider “ELL2, endogenous (from UniProt O00472 1-640)”, for which the binding result in assay [2] and in assay [4] was “binds” in each case.

B1: LARP7, endogenous (protein, UniProt Q4G0J3 1-582)
chain: METESGNQEKVMEEESTEKKKEVEKKKRSRVKQVLADIAKQVDFWFGDANLHKDRFLREQIEKSRDGYVDISLLVSFNKMKKLTTDGKLIARALRSSAVVELDLEGTRIRRKKPLGERPKDEDERTVYVELLPKNVNHSWIERVFGKCGNVVYISIPHYKSTGDPKGFAFVEFETKEQAAKAIEFLNNPPEEAPRKPGIFPKTVKNKPIPALRVVEEKKKKKKKKGRMKKEDNIQAKEENMDTSNTSISKMKRSRPTSEGSDIESTEPQKQCSKKKKKRDRVEASSLPEVRTGKRKRSSSEDAESLAPRSKVKKIIQKDIIKEASEASKENRDIEISTEEEKDTGDLKDSSLLKTKRKHKKKHKERHKMGEEVIPLRVLSKSEWMDLKKEYLALQKASMASLKKTISQIKSESEMETDSGVPQNTGMKNEKTANREECRTQEKVNATGPQFVSGVIVKIISTEPLPGRKQVRDTLAAISEVLYVDLLEGDTECHARFKTPEDAQAVINAYTEINKKHCWKLEILSGDHEQRYWQKILVDRQAKLNQPREKKRGTEKLITKAEKIRLAKTQQASKHIRFSEYD
As for B1, in assay [4], the binding result was “binds”.

B2: ELL1, endogenous (protein, UniProt P55199 1-621)
chain: MAALKEDRSYGLSCGRVSDGSKVSVFHVKLTDSALRAFESYRARQDSVSLRPSIRFQGSQGHISIPQPDCPAEARTFSFYLSNIGRDNPQGSFDCIQQYVSSHGEVHLDCLGSIQDKITVCATDDSYQKARQSMAQAEEETRSRSAIVIKAGGRYLGKKVQFRKPAPGATDAVPSRKRATPINLASAIRKSGASAVSGGSGVSQRPFRDRVLHLLALRPYRKAELLLRLQKDGLTQADKDALDGLLQQVANMSAKDGTCTLQDCMYKDVQKDWPGYSEGDQQLLKRVLVRKLCQPQSTGSLLGDPAASSPPGERGRSASPPQKRLQPPDFIDPLANKKPRISHFTQRAQPAVNGKLGVPNGREALLPTPGPPASTDTLSSSTHLPPRLEPPRAHDPLADVSNDLGHSGRDCEHGEAAAPAPTVRLGLPLLTDCAQPSRPHGSPSRSKPKKKSKKHKDKERAAEDKPRAQLPDCAPATHATPGAPADTPGLNGTCSVSSVPTSTSETPDYLLKYAAISSSEQRQSYKNDFNAEYSEYRDLHARIERITRRFTQLDAQLRQLSQGSEEYETTRGQILQEYRKIKKTNTNYSQEKHRCEYLHSKLAHIKRLIAEYDQRQLQAWP
On to B2, for which the binding result in assay [2] and in assay [4] was “binds” in each case.

B3: ENL, endogenous (protein, UniProt Q03111 1-559)
chain: MDNQCTVQVRLELGHRAQLRKKPTTEGFTHDWMVFVRGPEQCDIQHFVEKVVFWLHDSFPKPRRVCKEPPYKVEESGYAGFIMPIEVHFKNKEEPRKVCFTYDLFLNLEGNPPVNHLRCEKLTFNNPTTEFRYKLLRAGGVMVMPEGADTVSRPSPDYPMLPTIPLSAFSDPKKTKPSHGSKDANKESSKTSKPHKVTKEHRERPRKDSESKSSSKELEREQAKSSKDTSRKLGEGRLPKEEKAPPPKAAFKEPKMALKETKLESTSPKGGPPPPPPPPPRASSKRPATADSPKPSAKKQKKSSSKGSRSAPGTSPRTSSSSSFSDKKPAKDKSSTRGEKVKAESEPREAKKALEVEESNSEDEASFKSESAQSSPSNSSSSSDSSSDSDFEPSQNHSQGPLRSMVEDLQSEESDEDDSSSGEEAAGKTNPGRDSRLSFSDSESDNSADSSLPSREPPPPQKPPPPNSKVSGRRSPESCSKPEKILKKGTYDKAYTDELVELHRRLMALRERNVLQQIVNLIEETGHFNVTNTTFDFDLFSLDETTVRKLQSCLEAVAT
B3: the binding result in assay [2] and in assay [4] was “binds” each time.

The values are drawn from PMC4499153.
